# Measured values: PubChem BioAssay AID2685 (National Center for Advancing Translational Sciences (NCATS), 2010)
# Some of the results follow. These are further read-outs of the screen, such as a control signal, another cell line or another target. No call is given for them. The list favours compounds with an active or inconclusive main result. Words in brackets tell the shape of the fitted curve; partial curves, single points and poor fits give uncertain potencies.
# Experiment: qHTS Assay for Lipid Storage Modulators in Drosophila S3 Cells;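 for cell number change: cells counted by Cell Tracker Red CMTPX staining in the red channel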
# Conditions: BODIPY lipid droplet fluorescence, 18-24 h; for cell number change: measured here: cell count max response, cells fed with added oleic acid
# How it was run: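 Drosophila S3 cells got compounds at several concentrations plus oleic acid (400 uM solution). Laser-scanning cytometry with 488 nm excitation read lipid droplets at 500-530 nm and cells at 575-640 nm. Percent activity was relative to 20 uM Triacsin C.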
# [1] = measured here: cell number channel AC50, cells fed with added oleic acid
# [2] = measured here: lipid fluorescence (Fed channel) AC50, cells fed with added oleic acid
Compound,cell number change [%],AC50 [1],AC50 [2]
CCN(Cc1cc2cc(C)ccc2[nH]c1=O)C(=O)c1cccc(OC)c1,38.2,"16.4 µM [rising, single point]","25.9 µM [rising, partial curve, poor fit]"
NNc1nc2cccnc2n(CCNc2ncc(C(F)(F)F)cc2Cl)c1=O,76.8,"20.6 µM [rising, single point]",–
CCC(C)NC(=S)Nc1ccc2nc(N3CCN(CC)CC3)cc(C)c2c1 (stereo not given),-25.7,–,"29.1 µM [falling, single point]"
Nc1nc(CN2CCCCC2)cs1,-13,–,"1.64 µM [falling, full curve]"
C/C(=N\NC(=O)COc1cccc(Cl)c1)c1ccc2c(c1)OCCO2,31.7,"9.2 µM [rising, partial curve]",–
COc1cc(O)c(C(CC(=O)N2CCCC2)c2ccc(N(C)C)cc2)c(OC)c1 (stereo not given),25.9,–,"0.116 µM [rising, full curve, poor fit]"
Cc1cc(C)c2cc(CNC3CCCC3)c(Cl)nc2c1,0.506,–,"0.82 µM [rising, full curve, poor fit]"
O=C(c1cccc(S(=O)(=O)N2CCN(c3ccccc3)CC2)c1)N1CCCCCCC1,19.9,–,"29.1 µM [rising, single point]"
CCN(CC)/C(=N/S(=O)(=O)c1ccc(C)cc1)c1ccccc1,-54.4,"29.1 µM [falling, single point]","29.1 µM [falling, single point]"
CCNc1nc(NCC)n2c(SC(C(=O)Nc3cc(Cl)cc(Cl)c3)c3ccccc3)nnc2n1 (stereo not given),25,–,–
COc1ccc(/C=C/c2c(-c3ccc(OC)cc3)oc3ccc(-c4ccc(OC)cc4)cc23)cc1,–,–,"6.51 µM [rising, partial curve, poor fit]"
Cc1cccc(N2C(=O)CSC2c2cccnc2)c1 (stereo not given),-15.1,–,"6.51 µM [rising, partial curve, poor fit]"
CSc1ncccc1C(=O)Nc1cccc(S(=O)(=O)N(C)c2ccccc2)c1,7.13,–,"0.00461 µM [falling, full curve, poor fit]"
O=C(c1ccc(CN2CCc3ccccc3C2)cc1)N1CCc2ccccc2C1,31.8,"1.64 µM [rising, full curve, poor fit]","29.1 µM [rising, single point]"
COc1cc(CN2CCN(CCCc3ccccc3)CC2CCO)cc(OC)c1 (stereo not given),17,–,–
CCOc1ccc(N(CC(=O)NCc2ccccc2Cl)S(=O)(=O)c2c(C)[nH]c(=O)[nH]c2=O)cc1,3.8,–,–
O=[N+]([O-])c1ccc(COc2ncnc3ccccc23)cc1,-34.8,"14.6 µM [falling, partial curve]",–
CCc1ccc(NC(=O)CN(c2ccc(OC)cc2)S(=O)(=O)c2c(C)[nH]c(=O)[nH]c2=O)cc1,24.2,–,–
CN(C)/C=C/C(=O)c1cnc2sccn2c1=O,-29.8,"0.116 µM [falling, full curve, poor fit]","0.146 µM [falling, full curve, poor fit]"
Cc1ccc(C)c(S(=O)(=O)N2CCN(C(C)C(=O)Nc3ccccc3-c3ccccc3)CC2)c1 (stereo not given),200,"23.1 µM [rising, single point]",–
COC(=O)c1ccccc1NC(=O)C1COc2ccccc2O1 (stereo not given),214,–,"29.1 µM [rising, single point]"

Compound,cell number change [%],AC50 [1],AC50 [2]
COCCn1c(SCCN2CCCCC2)nc2ccccc2c1=O,9.27,–,–
COc1cccc(CNCCO)c1OCc1ccccc1,39.5,–,–
Oc1c(-c2cc(-c3ccco3)[nH]n2)ccc2ccccc12,-0.661,–,"6.51 µM [falling, single point]"
O=C(CSc1nnc(C2COc3ccccc3O2)o1)N1CCOCC1 (stereo not given),17.6,–,"7.31 µM [rising, partial curve]"
O=S(=O)(c1ccccc1)N1CCN(C(=S)NCCc2ccccc2)CC1,-28.2,–,–
COc1cccc(N/C(N)=N/c2nc(C(F)(F)F)cc(=O)[nH]2)c1,-35.3,"20.6 µM [falling, single point]","14.6 µM [falling, partial curve, poor fit]"
Cc1cccc(N2CCCn3c2nc2c3c(=O)n(CC(=O)OCc3ccccc3)c(=O)n2C)c1,8.67,–,"32.6 µM [rising, single point]"
COc1cc(OC)cc(C(=O)O/N=C(\N)c2cccc(C)c2)c1,–,–,"29.1 µM [rising, partial curve]"
Cc1cc(C)n(-c2cc(N3CCN(S(=O)(=O)c4ccc(Cl)cc4)CC3)ccc2[N+](=O)[O-])n1,-16.3,–,"0.731 µM [falling, full curve, poor fit]"
Cc1ccccc1C(=O)NC1CCN(Cc2nnnn2Cc2ccc(F)cc2)CC1,-24.5,–,"29.1 µM [falling, single point]"
C[C@@H](NC(=O)c1[nH]cnc1C(=O)Nc1cccc(Cl)c1)c1ccccc1,-52,"25.9 µM [falling, single point]","0.461 µM [falling, single point]"
CCCN(CCC)CCNC(=O)C1CCCN(S(=O)(=O)c2ccc3c(c2)oc(=O)n3C)C1 (stereo not given),-10.1,–,–
Clc1ccccc1-c1nnc2sc(-c3ccc(Br)o3)nn12,-21.9,–,"0.00461 µM [rising, full curve, poor fit]"
CC(NC(=O)CCCc1c[nH]c2ccccc12)c1ccc(F)cc1 (stereo not given),21.2,–,–
Cc1cc(=O)oc2ccc(OC(=O)CN3C(=O)c4cccc([N+](=O)[O-])c4C3=O)cc12,-33.9,"0.731 µM [falling, full curve]","0.58 µM [falling, full curve]"
COc1ccc(CCC(=O)NCCOc2ccc(C)cc2)cc1,-0.185,–,"0.58 µM [rising, partial curve, poor fit]"
CN(C)c1ccc(N=Nc2ccccc2C(=O)OCC(=O)N2CCCCCC2)cc1,3.02,–,–
CCOC(=O)CCc1c(C)c2ccc(OCC(=O)N3CCOCC3)c(C)c2oc1=O,-34.1,"35.5 µM [falling, single point]","12.6 µM [falling, partial curve]"
OC(COc1ccc(Cl)c2ccccc12)CN1CCN(c2ccccn2)CC1 (stereo not given),-38.5,"29.1 µM [falling, single point]","29.1 µM [falling, single point]"
Cc1ccc(N2CC(C(=O)Nc3cccnc3)CC2=O)cc1C (stereo not given),-13.2,–,–
CC(C)n1c(Nn2cnnc2)nc2ccccc21,–,–,"29.1 µM [rising, single point]"

Compound,cell number change [%],AC50 [1],AC50 [2]
COc1ccc(OC)c(CN(CCCN2CCOCC2)S(=O)(=O)c2ccc(NC(C)=O)cc2)c1,29.2,–,"18.4 µM [rising, partial curve]"
CC#CC[N+](C)(C)CCCCCCCCCC,-23.7,–,"25.9 µM [falling, single point]"
Cc1ccccc1OCCCCCn1ccnc1,0.453,–,"0.116 µM [rising, full curve]"
O=S(=O)(c1ccc(F)c(F)c1)N1CCN(S(=O)(=O)c2cccs2)CC1,–,–,"29.1 µM [falling, single point]"
CC1CCCC(C)N1C(=O)CSc1nc2ccccc2c(=O)[nH]1 (stereo not given),–,–,"20.6 µM [rising, single point]"
CC(=O)N/C(=C\c1ccc2c(c1)OCO2)C(=O)NC(C(=O)O)c1ccccc1 (stereo not given),12.8,"0.731 µM [rising, full curve, poor fit]","0.651 µM [rising, partial curve]"
COc1cccc(NC(=O)Cn2cc(C(=O)C3CC3)c3ccccc32)c1,–,"2.31 µM [rising, partial curve, poor fit]",–
COC(=O)c1ccc(OCC(O)CN(CCO)CCO)cc1 (stereo not given),-9.44,–,"0.164 µM [falling, full curve, poor fit]"
COc1ccc(C)cc1NC(=O)CN1CCN(c2ccccc2F)CC1,-0.541,–,"0.82 µM [rising, full curve]"
Cc1ccc(S(=O)(=O)CCC(=O)OCc2nc(N)nc(Nc3ccccc3C)n2)cc1,-1.71,–,"11.6 µM [rising, partial curve]"
c1ccc2oc(SCc3nc4ccccc4s3)nc2c1,14.2,"0.13 µM [falling, full curve, poor fit]","4.61 µM [rising, single point]"
COc1ccc(CCNS(=O)(=O)c2ccc3c(c2)NC(=O)C(C)S3)cc1OC (stereo not given),1.79,–,–
CCOC(=O)C(=O)NC(C)c1ccccc1 (stereo not given),20.2,–,"25.9 µM [rising, single point]"
COc1ccc(NC(=O)C2CCCN(S(=O)(=O)c3ccccc3)C2)c(OC)c1 (stereo not given),-23.3,–,"29.1 µM [rising, single point]"
COc1ccc(C(=O)Nc2ccc(S(=O)(=O)NC(C)(C)C)cc2)cc1[N+](=O)[O-],7.01,–,"23.1 µM [falling, single point]"
COc1ccccc1CNC(=O)c1nccnc1CO,21.6,–,"6.51 µM [rising, single point]"
Cc1cc(=O)[nH]c(SCCOc2ccc3c(c2)CCC3)n1,0.473,–,"6.51 µM [falling, partial curve, poor fit]"
CCOCC(=O)Nc1nnc(Cc2ccc(OC)c(OC)c2)s1,-5.64,–,–
Cn1c(=O)c2c(nc(NCCO)n2CCc2ccccc2)n(C)c1=O,-47.8,"29.1 µM [falling, single point]","11.6 µM [falling, partial curve]"

# Filtered by structure: the compounds so far with two or more sulfur atoms
Compound,cell number change [%],AC50 [1],AC50 [2]
CSc1ncccc1C(=O)Nc1cccc(S(=O)(=O)N(C)c2ccccc2)c1,7.13,–,"0.00461 µM [falling, full curve, poor fit]"
O=S(=O)(c1ccccc1)N1CCN(C(=S)NCCc2ccccc2)CC1,-28.2,–,–
O=S(=O)(c1ccc(F)c(F)c1)N1CCN(S(=O)(=O)c2cccs2)CC1,–,–,"29.1 µM [falling, single point]"
c1ccc2oc(SCc3nc4ccccc4s3)nc2c1,14.2,"0.13 µM [falling, full curve, poor fit]","4.61 µM [rising, single point]"
COc1ccc(CCNS(=O)(=O)c2ccc3c(c2)NC(=O)C(C)S3)cc1OC (stereo not given),1.79,–,–
